The test system of this experiment is L1210 leukemia ip in BDF1 mice, survival T/C. Description: NCI In Vivo Anticancer Drug Screen. Data for tumor model L1210 Leukemia (intraperitoneal) in B6D2F1 (BDF1) mice. The conditions noted are these: T/C endpoint: mean survival time, higher T/C = longer survival.
Where [1] appears, read: dose: 400.0 mg/kg/injection, schedule: Q01DX009 (ip), vehicle: Klucel (hydroxypropylcellulose) (HPC).
The mark [2] stands for this setting: dose: 400.0 mg/kg/injection, schedule: Q01DX009 (ip), vehicle: saline with Tween-80.
Setting [3] is: dose: 400.0 mg/kg/injection, schedule: Q04DX003 (ip), vehicle: Klucel (hydroxypropylcellulose) (HPC).
[4] abbreviates: dose: 100.0 mg/kg/injection, schedule: Q01DX009 (ip), vehicle: saline with Tween-80.
The mark [5] stands for this setting: dose: 200.0 mg/kg/injection, schedule: Q01DX009 (ip), vehicle: saline with Tween-80.
The mark [6] stands for this setting: dose: 400.0 mg/kg/injection, schedule: Q01DX001 (ip), vehicle: carboxymethylcellulose (CMC).
[7] abbreviates: dose: 100.0 mg/kg/injection, schedule: Q01DX001 (ip), vehicle: carboxymethylcellulose (CMC).
[8] abbreviates: dose: 200.0 mg/kg/injection, schedule: Q01DX001 (ip), vehicle: saline with Tween-80.

The structures appear in SMILES notation. The list is a part of this screen's results and no random one: it gathers tests that were run many times, whatever their T/C, doses with no T/C, and many T/C values between a quarter and a half above the control. Other doses and runs of a compound stand elsewhere. T/C is the treated group as % of the vehicle group. Some entries give survivors of the animals treated and no T/C: the source holds a T/C of zero for them, seemingly a mark for toxic or unscored doses. Some survivor counts are full or nearly so, which does not show that the dose was tolerated: the source hardly ever lists a survival T/C far under the control, and the zero likely stands for such cases as well. Survivors were counted at the toxicity check, usually on the fifth day, unless a day is given; later deaths do not show. Schedule codes are those of the source, taken here to give the interval after Q, in days (D) or hours (H), and the number of doses after X. Some entries were tested several times; the values are given in rising order. Some schedule codes hold Z or #, which are not explained here. Where survival is the endpoint, this PubChem deposit counts one and a half times the control or more as active, and values a quarter to a half above the control carry no call in these data; other NCI protocols may use other cut-offs. Some T/C values carry the count of animals alive at the toxicity check (mostly the fifth day); without a count, all were alive then.

Regarding `Cc1c2ccncc2c(C)c2c1sc1ccccc12`, the T/C is, setting by setting: (dose: 40.0 mg/kg/injection, schedule: Q01DX009 (ip), vehicle: Klucel (hydroxypropylcellulose) (HPC)) 129 % of control; (dose: 40.0 mg/kg/injection, schedule: Q01DX009 (ip), vehicle: other) 144 % of control; (dose: 80.0 mg/kg/injection, schedule: Q01DX009 (ip), vehicle: Klucel (hydroxypropylcellulose) (HPC)) 125 % of control; (dose: 160.0 mg/kg/injection, schedule: Q01DX009 (ip), vehicle: Klucel (hydroxypropylcellulose) (HPC)) 132 % of control; (dose: 160.0 mg/kg/injection, schedule: Q01DX009 (ip), vehicle: other) 145 % of control; (dose: 250.0 mg/kg/injection, schedule: Q01DX001 (ip), vehicle: other) 132 % of control. Also, for the setting “dose: 1000.0 mg/kg/injection, schedule: Q01DX001 (ip), vehicle: other”, the survivor count is given as 0 of 6.
`Cc1cc(C)c(-c2c(C)cc(C)c(N)c2C)c(C)c1N`: the survivor count is recorded as 3 of 6 (dose: 100.0 mg/kg/injection, schedule: Q01DX009 (ip), vehicle: Klucel (hydroxypropylcellulose) (HPC)); 1 of 6 (dose: 200.0 mg/kg/injection, schedule: Q01DX009 (ip), vehicle: Klucel (hydroxypropylcellulose) (HPC)); 0 of 6 under setting [1].
With `O=C1CN=C(c2ccccc2)c2cc(Cl)ccc2N1`, the survivor count under setting [1] is 3 of 6.
Turning to `CCCCCCCCCC(O)CCCCC` (configuration not stated), the survivor count under setting [2] was 1 of 6.
As to `Nc1ccn([C@@H](C=O)O[C@@H](C=O)CO)c(=O)n1`, the T/C (dose: 140.0 mg/kg/injection, schedule: Q01DX Z (ip), vehicle: water) is 148 % of control.
For `CCC1(O)C(=O)OCc2c1c(Br)c(-c1ccccc1)n(C)c2=O` (configuration not stated), for the setting “dose: 100.0 mg/kg/injection, schedule: Q01DX001 (ip), vehicle: saline with Tween-80”, the T/C is 125 % of control.
For `Cc1cccc(C)c1NC(N)=S`, the survivor count under setting [3] is 6 of 6.
For `C=CCOC(=O)CCCCCCCC(=O)OCC=C`, the survivor count reads like this: (dose: 44.0 mg/kg/injection, schedule: Q01DX Z (ip), vehicle: methylcellulose (MC)) 6 of 6; (dose: 66.0 mg/kg/injection, schedule: Q01DX Z (ip), vehicle: methylcellulose (MC)) 6 of 6; (dose: 100.0 mg/kg/injection, schedule: Q01DX Z (ip), vehicle: methylcellulose (MC)) 6 of 6.
Turning to `CC(C)(C)NC(=O)Nc1ccc(O)cc1`, the survivor count under setting [2] is reported as 2 of 3.
Consider `CNC(=O)Oc1ccc(-c2ccccc2)cc1Cl`, for which the T/C under setting [4] is 88, 103 [2 of 3 alive], 105, 106 % of control [4 of 6 alive]. Moreover, the survivor count is 3 of 3 under setting [5]; 3 of 6 and 3 of 3 under setting [2].
Regarding `Nc1nc2ncc(CNc3ccc(C(=O)NC(CCC(=O)O)C(=O)O)cc3F)nc2c(=O)[nH]1` (configuration not stated), the survivor count by setting is: (dose: 200.0 mg/kg/injection, schedule: Q01DX001 (ip), vehicle: saline) 2 of 4; (dose: 400.0 mg/kg/injection, schedule: Q01DX001 (ip), vehicle: saline) 0 of 4.
As for `CC(C)(C)N.[O]=[Cr](=[O])([OH])[OH]`, the survivor count (dose: 75.0 mg/kg/injection, schedule: Q01DX001 (ip), vehicle: saline) is 0 of 6; the survivor count (dose: 150.0 mg/kg/injection, schedule: Q01DX001 (ip), vehicle: saline) was 0 of 6; the survivor count (dose: 300.0 mg/kg/injection, schedule: Q01DX001 (ip), vehicle: saline) was 0 of 6.
`CSc1ccc(NC(=O)c2ccc(Cl)cc2Cl)cc1`: the survivor count (dose: 400.0 mg/kg/injection, schedule: Q01DX009 (ip), vehicle: saline + alcohol) was 0 of 6 and 1 of 3.
For the molecule `CC(=O)NC(CCSCc1c2ccccc2c(C)c2ccccc12)C(=O)O` (configuration not stated), the survivor count is, setting by setting: under setting [5], 6 of 6; (dose: 400.0 mg/kg/injection, schedule: Q04DX003 (ip), vehicle: saline with Tween-80) 4 of 6.
Turning to `COc1ccc(CN2CCCN(Cc3ccc(OC)cc3)C2c2ccc(OC)cc2)cc1`, the survivor count by setting is: under setting [4], 6 of 6; under setting [2], 6 of 6.
For `CC(C)(C)C1CCC(NC(=O)C(Cl)Cl)CC1` (configuration not stated), the survivor count reads like this: (dose: 200.0 mg/kg/injection, schedule: Q04DX003 (ip), vehicle: Klucel (hydroxypropylcellulose) (HPC)) 0 of 6; under setting [3], 0 of 6.
For the molecule `C/C(=C/c1ccc(/C=C(\C)[N+](=O)[O-])cc1)[N+](=O)[O-]`, the survivor count reads like this: (dose: 20.0 mg/kg/injection, schedule: Q01DX001 (ip), vehicle: acetone) 3 of 6; (dose: 40.0 mg/kg/injection, schedule: Q01DX001 (ip), vehicle: acetone) 0 of 6; (dose: 75.0 mg/kg/injection, schedule: Q01DX001 (ip), vehicle: acetone) 1 of 6; (dose: 150.0 mg/kg/injection, schedule: Q01DX001 (ip), vehicle: acetone) 0 of 6; (dose: 300.0 mg/kg/injection, schedule: Q01DX001 (ip), vehicle: acetone) 0 of 6.
For the molecule `CCOC(=O)N1C2CC=CCC1C1(c3ccccc3)OC2(c2ccccc2)c2ccccc21`, the survivor count runs as follows: (dose: 200.0 mg/kg/injection, schedule: Q04DX002 (ip), vehicle: DMSO) 3 of 3; (dose: 400.0 mg/kg/injection, schedule: Q04DX002 (ip), vehicle: DMSO) 1 of 3.
`CC(C)OC(=O)Oc1cccc2c1C(=O)c1ccccc1C2=O`: the survivor count under setting [1] was 6 of 6.
For `NC(=S)N/N=C1/CCc2ccccc21`, the survivor count runs as follows: (dose: 200.0 mg/kg/injection, schedule: Q01DX001 (ip), vehicle: carboxymethylcellulose (CMC)) 0 of 4; under setting [6], 0 of 4.
In the case of `CCNC(=S)NC1CCCCCCCCCCC1`, the survivor count (dose: 400.0 mg/kg/injection, schedule: Q04DX002 (ip), vehicle: saline with Tween-80) is recorded as 3 of 3.
`CC(C)(C)c1cc(CN2CCCC(O)C2)c(O)c(-c2ccccc2)c1` (configuration not stated): the survivor count (dose: 400.0 mg/kg/injection, schedule: Q04DX003 (ip), vehicle: saline) is reported as 2 of 6.
As for `Nc1nc(N)nc(CCCCc2nc(N)nc(N)n2)n1`, the survivor count (dose: 50.0 mg/kg/injection, schedule: Q01DX001 (ip), vehicle: carboxymethylcellulose (CMC)) is recorded as 4 of 4; the survivor count under setting [7] is reported as 4 of 4; the survivor count under setting [6] is 4 of 4.
For `CC1=CC(=C2C=C(C)C(=O)C(C)=C2)C=C(C)C1=O`, the survivor count under setting [8] was 3 of 3.
The same measure, in the same setting: the figure for `O=C(CCCCCCCCC(=O)N/N=C/c1ccccc1)N/N=C/c1ccccc1` is 6 of 6.
For the molecule `Cc1ccc(NC(=O)Oc2ccc(-c3ccccc3)cc2)cc1NC(=O)Oc1ccc(-c2ccccc2)cc1`, the survivor count under setting [5] is listed as 6 of 6.
In the case of `O=NN(CCBr)C(=O)NCCBr`, the T/C by setting is: (dose: 12.0 mg/kg/injection, schedule: Q01DX Z (ip), vehicle: carboxymethylcellulose (CMC)) 130 % of control; (dose: 25.0 mg/kg/injection, schedule: Q01DX Z (ip), vehicle: carboxymethylcellulose (CMC)) 147 % of control; under setting [7], 127 % of control. For the same molecule, the survivor count is on record as 3 of 6 (dose: 200.0 mg/kg/injection, schedule: Q01DX Z (ip), vehicle: carboxymethylcellulose (CMC)); 0 of 6 under setting [6]; 0 of 6 (dose: 400.0 mg/kg/injection, schedule: Q01DX Z (ip), vehicle: carboxymethylcellulose (CMC)); 1 of 6 (dose: 500.0 mg/kg/injection, schedule: Q01DX001 (ip), vehicle: carboxymethylcellulose (CMC)); 0 of 6 (dose: 600.0 mg/kg/injection, schedule: Q01DX001 (ip), vehicle: carboxymethylcellulose (CMC)); 0 of 6 (dose: 800.0 mg/kg/injection, schedule: Q01DX001 (ip), vehicle: carboxymethylcellulose (CMC)). Also, for the setting “dose: 1000.0 mg/kg/injection, schedule: Q01DX001 (ip), vehicle: carboxymethylcellulose (CMC)”, the survivor count is reported as 0 of 6.
